In paper PMC9352765:
No constants are given. Whether binding was seen depends on the method and setting. For some of these results: Binding seen in cells or lysates may run through a third protein. Some results given as binding are weak or reduced against the parent protein; the word gives no strength.

What was measured:
[1] = target: T1, Syt13-BirA recombinant protein (mouse) (UniProt Q9EQT6); assay: co-IP; MDCK cells; called co-IP in the results; the methods tell only of the precipitation on NeutrAvidin beads of the BioID approach, followed by western blot
T1 sequence: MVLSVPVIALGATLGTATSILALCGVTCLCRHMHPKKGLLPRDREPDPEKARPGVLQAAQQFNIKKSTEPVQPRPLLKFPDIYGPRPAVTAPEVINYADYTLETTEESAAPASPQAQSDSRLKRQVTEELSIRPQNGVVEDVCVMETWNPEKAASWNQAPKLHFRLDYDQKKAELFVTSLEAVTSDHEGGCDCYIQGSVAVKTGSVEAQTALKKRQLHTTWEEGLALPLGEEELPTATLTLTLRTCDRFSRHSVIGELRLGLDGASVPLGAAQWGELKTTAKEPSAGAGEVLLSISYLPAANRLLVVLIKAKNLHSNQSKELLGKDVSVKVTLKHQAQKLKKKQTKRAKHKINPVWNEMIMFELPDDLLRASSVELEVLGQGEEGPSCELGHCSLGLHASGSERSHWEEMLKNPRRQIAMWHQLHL

[2] = target: Syt13-C2AB (aa 39–426 of mouse Syt13) (mouse) (UniProt Q9EQT6); assay: dynamic light scattering; Zetasizer Nano ZS; protein above 0.5 mg/mL in 50 mM Tris, 150 mM NaCl, 1 mM DTT, pH 8.0; both purified
[3] = target: Syt13-C2A (aa 39 to 282 of mouse Syt13) (mouse) (UniProt Q9EQT6); assay: as above
[4] = target: Syt13-C2B (aa 289–426 of mouse Syt13) (mouse) (UniProt Q9EQT6); assay: as above

B1: Caveolin-1 (protein, UniProt P33724 1-178)
chain: MSGGKYVDSEGHLYTVPIREQGNIYKPNNKAMAEEMSEKQVYDAHTKEIDLVNRDPKHLNDDVVKIDFEDVIAEPEGTHSFDGIWKASFTTFTVTKYWFYRLLSALFGIPMALIWGIYFAILSFLHIWAVVPCIKSFLIEIQCISRVYSIYVHTFCDPFFEAVGKIFSNIRINMQKET
binding [1]: binds

B2: Syt13-C2AB (aa 39–426 of mouse Syt13) (domain or fragment, UniProt Q9EQT6 39-426)
chain: LLPRDREPDPEKARPGVLQAAQQFNIKKSTEPVQPRPLLKFPDIYGPRPAVTAPEVINYADYTLETTEESAAPASPQAQSDSRLKRQVTEELSIRPQNGVVEDVCVMETWNPEKAASWNQAPKLHFRLDYDQKKAELFVTSLEAVTSDHEGGCDCYIQGSVAVKTGSVEAQTALKKRQLHTTWEEGLALPLGEEELPTATLTLTLRTCDRFSRHSVIGELRLGLDGASVPLGAAQWGELKTTAKEPSAGAGEVLLSISYLPAANRLLVVLIKAKNLHSNQSKELLGKDVSVKVTLKHQAQKLKKKQTKRAKHKINPVWNEMIMFELPDDLLRASSVELEVLGQGEEGPSCELGHCSLGLHASGSERSHWEEMLKNPRRQIAMWHQLHL
binding [2]: no binding (tested: above 0.5 mg/mL)

B3: Syt13-C2A (aa 39 to 282 of mouse Syt13) (domain or fragment, UniProt Q9EQT6 39-282)
chain: LLPRDREPDPEKARPGVLQAAQQFNIKKSTEPVQPRPLLKFPDIYGPRPAVTAPEVINYADYTLETTEESAAPASPQAQSDSRLKRQVTEELSIRPQNGVVEDVCVMETWNPEKAASWNQAPKLHFRLDYDQKKAELFVTSLEAVTSDHEGGCDCYIQGSVAVKTGSVEAQTALKKRQLHTTWEEGLALPLGEEELPTATLTLTLRTCDRFSRHSVIGELRLGLDGASVPLGAAQWGELKTTAK
binding [3]: no binding (tested: above 0.5 mg/mL)

B4: Syt13-C2B (aa 289–426 of mouse Syt13) (domain or fragment, UniProt Q9EQT6 289-426)
chain: GEVLLSISYLPAANRLLVVLIKAKNLHSNQSKELLGKDVSVKVTLKHQAQKLKKKQTKRAKHKINPVWNEMIMFELPDDLLRASSVELEVLGQGEEGPSCELGHCSLGLHASGSERSHWEEMLKNPRRQIAMWHQLHL
binding [4]: no binding (tested: above 0.5 mg/mL)
